Measurements from US9738610B2, “Indazole derivatives and uses thereof” (Whitehead Institute for Biomedical Research, priority 2012, dated 2017).
For at least one compound, name, drawing or mass did not settle the structure.

Experiments:
C. albicans CaCi-2 = test: CaCi-2 growth inhibition in the presence of 8 μg/ml fluconazole (Alamar Blue); format: cell-based, Candida albicans; settings: read-out: Target Potency (μM) Mean ± S.E.M CaCi-2^a IC50
Method: Fluconazole was obtained from Sequoia Research Products, Ltd. and prepared in a 2 mg/ml stock solution in phosphate buffered saline (PBS). […] PBS (Catalog No. 21-040-CV) without calcium and magnesium was obtained from Cellgro. Penicillin/Streptomycin (Pen/Strep) was obtained from Gibco and prepared 100× in PBS.
RPMI medium (1×) was prepared by dissolving 10.4 g powdered medium in 800 ml water. A buffer of 34.52 g MOPS was added. While stirring, pH was adjusted to 7.0 with 10 N NaOH. Next, 10 ml uridine solution and 50 ml glucose solution were added. The final volume was adjusted to 1000 ml, and filter sterilized.
The following yeast strains were used in this study: C. albicans CaCi-2. […] The optical density (OD 600) of 1 ml fungal culture in a cuvette was read using a standard optical density reader (Eppendorf BioPhotometer Plus), with growth medium as a background blank. The desired volume of fungal inoculums was diluted to desired volume of fungal inoculums according to the following formula: (1/OD measured)×(Desired Final Volume of Inoculum)×0.3=Volume of fungal culture (μl) to add to desired volume of growth medium. When added to media in wells, this yields a calculated starting OD of the fungal inoculum of 0.00015. […]

[1] = tested on: NIH-3T3 mammalian fibroblasts; test: Counterscreen mammalian cell toxicity assay (fibroblast toxicity); format: cell-based, murine; settings: for IC50: footnote: in the absence of fluconazole, read-out: Anti-target Potency (μM) Mean ± S.E.M Fibroblasts^b IC50

Compound | IC50 (C. albicans CaCi-2) [µM] | ** CaCi-2 to anti-target fold selectivity ([1]; fibroblast IC50 over CaCi-2 IC50 with fluconazole) | IC50 [1] [µM]
COC(=O)Cn1nc(-c2ccccc2)c2ccc(OC)cc21 [Compound 49835812] | 7.37 | 0.01 | 0.8
O=C(Cn1nc(-c2ccccc2)c2ccccc21)OC1CCC1 [Compound 49835870] |  |  | 0.19
